PubChem BioAssay AID1159578, Peter MacCallum Cancer Centre – 2015
Shown is one part, drawn at random, of about 18,000 reagents. Over the whole deposit, about 1,030 (5.7%) are marked active. 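Inactive calls also include pools with fewer than 3300 nuclei, whose migration was not assessed.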 The raw values are shown without normalisation. A number with no mark means an inactive call. The numbers tell different reagents against one gene apart. Not all columns of the deposit are shown.

Assay: 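Genome-wide hunt for genes controlling movement of lymphatic endothelial cells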 (primary screen)
Cell system: human lymphatic endothelial cells
Reagents: siRNA pool against human genes, 40 nM
Timing: 48 h after transfection
Measured: 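High-content imaging of dye-stained cells in a scratch assay measures filled wound area and nuclei per well; duplicate means given as ratio to mock and robust z-score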
Reading the numbers: migration robust z-score: higher = faster migration into the scratch; nuclei per well: higher = more cells in the well
Rule for the call: 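Migration changed when robust z exceeds 2 or falls below -2 and mean nuclei number is at least 3300; otherwise not called changed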
Meaning of the calls: active = migration changed; inactive = no migration change, or too few cells

| gene knocked down | reagent | migration robust z-score | migration class with cell-count check | nuclei per well, duplicate mean |
| --- | --- | --- | --- | --- |
| MAGT1 | 1 | -1.19 | migration z between -2 and 2; enough cells | 6986 |
| OIP5 | 1 | -0.09 | migration z between -2 and 2; enough cells | 5794 |
| OR4F6 | 1 | -1.22 | migration z between -2 and 2; enough cells | 3336 |
| DIRC1 | 1 | 0.59 | migration z between -2 and 2; enough cells | 5212 |
| HLA-E | 1 | 0.64 | migration z between -2 and 2; enough cells | 5570 |
| SET | 1 | 0.16 | migration z between -2 and 2; enough cells | 4974 |
| SPECC1L | 1 | 0.98 | migration z between -2 and 2; enough cells | 5620 |
| RBM3 | 1 | 2.08 (active) | migration z above 2; enough cells | 5884 |
| DDX43 | 1 | -0.18 | migration z between -2 and 2; enough cells | 5594 |
| CNNM3 | 1 | 0.79 | migration z between -2 and 2; enough cells | 5964 |
| MARCHF6 | 1 | -0.68 | migration z between -2 and 2; enough cells | 4710 |
| EPHX2 | 1 | -0.77 | migration z between -2 and 2; enough cells | 6623 |
| POLL | 1 | -1.94 | migration z between -2 and 2; enough cells | 4293 |
| SLC6A13 | 1 | -1.58 | migration z between -2 and 2; enough cells | 5694 |
| ACOT13 | 1 | -2.54 (active) | migration z below -2; enough cells | 7660 |
| SNX21 | 1 | -0.44 | migration z between -2 and 2; enough cells | 5718 |
| EIPR1 | 1 | 0.72 | migration z between -2 and 2; enough cells | 5824 |
| SCN10A | 1 | 1.01 | migration z between -2 and 2; enough cells | 5887 |
| FREY1 | 1 | -1.02 | migration z between -2 and 2; enough cells | 5640 |
| SOX12 | 1 | 0.03 | migration z between -2 and 2; enough cells | 5788 |
| SPTLC3 | 1 | -0.34 | migration z between -2 and 2; enough cells | 6788 |
| SLC45A3 | 1 | -3.54 (active) | migration z below -2; enough cells | 4370 |
| PLA2R1 | 1 | -1.24 | migration z between -2 and 2; enough cells | 4880 |
| PAPLN | 1 | -1.84 | migration z between -2 and 2; enough cells | 5903 |

A few values from above:
PAPLN, migration robust z-score = -1.84
Under “nuclei per well, duplicate mean”, POLL is entered as 4293
HLA-E, nuclei per well, duplicate mean: 5570
SNX21, nuclei per well, duplicate mean: 5718
FREY1, migration class with cell-count check: migration z between -2 and 2; enough cells
Under “nuclei per well, duplicate mean”, RBM3 has 5884 (active)

Further results:
| gene knocked down | reagent | migration robust z-score | migration class with cell-count check | nuclei per well, duplicate mean |
| --- | --- | --- | --- | --- |
| TAF11 | 1 | -0.32 | migration z between -2 and 2; enough cells | 5008 |
| TMEM223 | 1 | 0.88 | migration z between -2 and 2; enough cells | 5966 |
| GPAT2 | 1 | 1.16 | migration z between -2 and 2; enough cells | 4682 |
| SUCO | 1 | -0.52 | migration z between -2 and 2; enough cells | 4823 |
| RNF10 | 1 | 1.14 | migration z between -2 and 2; enough cells | 6564 |
| RSF1 | 1 | 0.57 | migration z between -2 and 2; enough cells | 6490 |
| ZC3H10 | 1 | -1.01 | migration z between -2 and 2; enough cells | 6431 |
| PARP12 | 1 | 0.94 | migration z between -2 and 2; enough cells | 5796 |
| UBA2 | 1 | -0.26 | migration z between -2 and 2; enough cells | 5838 |
| MTMR12 | 1 | -0.1 | migration z between -2 and 2; enough cells | 4264 |
| DNAH10 | 1 | -0.8 | migration z between -2 and 2; enough cells | 5840 |
| INTS13 | 1 | 0.66 | migration z between -2 and 2; enough cells | 4940 |
| FLNA | 1 | -0.29 | migration z between -2 and 2; enough cells | 5232 |
| PRKAR2B | 1 | -1.09 | migration z between -2 and 2; enough cells | 4899 |
| SLC6A5 | 1 | -0.32 | migration z between -2 and 2; enough cells | 5987 |
| DLGAP2 | 1 | 1.78 | migration z between -2 and 2; enough cells | 6952 |
| SGMS1 | 1 | 0.31 | migration z between -2 and 2; enough cells | 5554 |
| LCOR | 1 | -0.64 | migration z between -2 and 2; enough cells | 5518 |
| LCOR | 2 | -1.31 | migration z between -2 and 2; enough cells | 5259 |
| VCPIP1 | 1 | -0.98 | migration z between -2 and 2; enough cells | 5558 |
| PIEZO1 | 1 | 0.96 | migration z between -2 and 2; enough cells | 6353 |
| WDR76 | 1 | -0.6 | migration z between -2 and 2; enough cells | 6706 |
| CDIP1 | 1 | -1.36 | migration z between -2 and 2; enough cells | 3424 |
| SYN3 | 1 | -0.36 | migration z between -2 and 2; enough cells | 5580 |
| HNRNPUL2 | 1 | 1.83 | migration z between -2 and 2; enough cells | 7296 |
| OR52N5 | 1 | 0.16 | migration z between -2 and 2; enough cells | 5880 |
| IFNG | 1 | 0.52 | migration z between -2 and 2; enough cells | 5676 |
| INTS6L | 1 | -0.78 | migration z between -2 and 2; enough cells | 4322 |
| WNT1 | 1 | 0.22 | migration z between -2 and 2; enough cells | 4910 |
| ETV7 | 1 | 1.29 | migration z between -2 and 2; enough cells | 7765 |
| ZCCHC12 | 1 | -0.2 | migration z between -2 and 2; enough cells | 7380 |
| ZNG1F | 1 | -2.04 (active) | migration z below -2; enough cells | 6198 |
| WNT9B | 1 | 0.4 | migration z between -2 and 2; enough cells | 6373 |
| SURF1 | 1 | -0.2 | migration z between -2 and 2; enough cells | 6798 |
| WARS2 | 1 | 0.48 | migration z between -2 and 2; enough cells | 6477 |
| CCNI | 1 | -0.1 | migration z between -2 and 2; enough cells | 5119 |
| SEZ6 | 1 | -2.46 | under 3300 nuclei; migration not judged | 3230 |
| RUNX2 | 1 | -0.42 | migration z between -2 and 2; enough cells | 5028 |
| CT47A5 | 1 | -1.4 | migration z between -2 and 2; enough cells | 6252 |
| MRO | 1 | 0.57 | migration z between -2 and 2; enough cells | 5978 |
| LRRC8C | 1 | -0.77 | migration z between -2 and 2; enough cells | 4709 |
| DDB1 | 1 | -0.78 | migration z between -2 and 2; enough cells | 5392 |
| SGTA | 1 | -2.44 | under 3300 nuclei; migration not judged | 3294 |
| RSRP1 | 1 | -0.24 | migration z between -2 and 2; enough cells | 5926 |
| FFAR4 | 1 | 0.86 | migration z between -2 and 2; enough cells | 6408 |
| CCNB2 | 1 | -0.96 | migration z between -2 and 2; enough cells | 5138 |
| FMO2 | 1 | -0.06 | migration z between -2 and 2; enough cells | 4260 |
| OR51D1 | 1 | -0.89 | migration z between -2 and 2; enough cells | 5485 |
| HESX1 | 1 | -0.24 | migration z between -2 and 2; enough cells | 4119 |
